Data from paper PMC4627417.

B1: SFRS15 (protein, UniProt O95104 1-1147)
chain: MDAVNAFNQELFSLMDMKPPISRAKMILITKAAIKAIKLYKHVVQIVEKFIKKCKPEYKVPGLYVIDSIVRQSRHQFGTDKDVFGPRFSKNITATFQYLYLCPSEDKSKIVRVLNLWQKNGVFKIEIIQPLLDMAAGTSNAAPVAENVTNNEGSPPPPVKVSSEPPTQATPNSVPAVPQLPSSDAFAAVAQLFQTTQGQQLQQILQTFQQPPKPQSPALDNAVMAQVQAITAQLKTTPTQPSEQKAAFPPPEQKTAFDKKLLDRFDYDDEPEAVEESKKEDTTAVTTTAPAAAVPPAPTATVPAAAAPAAASPPPPQAPFGFPGDGMQQPAYTQHQNMDQFQPRMMGIQQDPMHHQVPLPPNGQMPGFGLLPTPPFPPMAQPVIPPTPPVQQPFQASFQAQNEPLTQKPHQQEMEVEQPCIQEVKRHMSDNRKSRSRSASRSPKRRRSRSGSRSRRSRHRRSRSRSRDRRRHSPRSRSQERRDREKERERRQKGLPQVKPETASVCSTTLWVGQLDKRTTQQDVASLLEEFGPIESINMIPPRGCAYIVMVHRQDAYRALQKLSRGNYKVNQKSIKIAWALNKGIKADYKQYWDVELGVTYIPWDKVKPEELESFCEGGMLDSDTLNPDWKGIPKKPENEVAQNGGAETSHTEPVSPIPKPLPVPVPPIPVPAPITVPPPQVPPHQPGPPVVGALQPPAFTPPLGIPPPGFGPGVPPPPPPPPFLRPGFNPMHLPPGFLPPGPPPPITPPVSIPPPHTPPISIPNSTIAGINEDTTKDLSIGNPIPTVVSGARGNAESGDSVKMYGSAVPPAAPTNLPTPPVTQPVSLLGTQGVAPGPVIGLQAPSTGLLGARPGLIPLQRPPGMPPPHLQRFPLMPPRPMPPHMMHRGPPPGPGGFAMPPPHGMKGPFPPHGPFVRPGGMPGLGGPGPGPGGPEDRDGRQQPPQQPQQQPQPQAPQQPQQQQQQQPPPSQQPPPTQQQPQQFRNDNRQQFNSGRDQERFGRRSFGNRVENDRERYGNRNDDRDNSNRDRREWGRRSPDRDRHRDLEERNRRSSGHRDRERDSRDRESRREKEEARGKEKPEVTDRAGGNKTVEPPISQVGNVDTASELEKGVSEAAVLKPSEELPAEATSSVEPEKDSGSAAEAPR
B2: CSTF1 (protein, UniProt Q05048 1-431)
chain: MYRTKVGLKDRQQLYKLIISQLLYDGYISIANGLINEIKPQSVCAPSEQLLHLIKLGMENDDTAVQYAIGRSDTVAPGTGIDLEFDADVQTMSPEASEYETCYVTSHKGPCRVATYSRDGQLIATGSADASIKILDTERMLAKSAMPIEVMMNETAQQNMENHPVIRTLYDHVDEVTCLAFHPTEQILASGSRDYTLKLFDYSKPSAKRAFKYIQEAEMLRSISFHPSGDFILVGTQHPTLRLYDINTFQCFVSCNPQDQHTDAICSVNYNSSANMYVTGSKDGCIKLWDGVSNRCITTFEKAHDGAEVCSAIFSKNSKYILSSGKDSVAKLWEISTGRTLVRYTGAGLSGRQVHRTQAVFNHTEDYVLLPDERTISLCCWDSRTAERRNLLSLGHNNIVRCIVHSPTNPGFMTCSDDFRARFWYRRSTTD
B3: DDX42 (protein, UniProt Q86XP3 1-938)
chain: MNWNKGGPGTKRGFGFGGFAISAGKKEEPKLPQQSHSAFGATSSSSGFGKSAPPQLPSFYKIGSKRANFDEENAYFEDEEEDSSNVDLPYIPAENSPTRQQFHSKPVDSDSDDDPLEAFMAEVEDQAARDMKRLEEKDKERKNVKGIRDDIEEEDDQEAYFRYMAENPTAGVVQEEEEDNLEYDSDGNPIAPTKKIIDPLPPIDHSEIDYPPFEKNFYNEHEEITNLTPQQLIDLRHKLNLRVSGAAPPRPGSSFAHFGFDEQLMHQIRKSEYTQPTPIQCQGVPVALSGRDMIGIAKTGSGKTAAFIWPMLIHIMDQKELEPGDGPIAVIVCPTRELCQQIHAECKRFGKAYNLRSVAVYGGGSMWEQAKALQEGAEIVVCTPGRLIDHVKKKATNLQRVSYLVFDEADRMFDMGFEYQVRSIASHVRPDRQTLLFSATFRKKIEKLARDILIDPIRVVQGDIGEANEDVTQIVEILHSGPSKWNWLTRRLVEFTSSGSVLLFVTKKANAEELANNLKQEGHNLGLLHGDMDQSERNKVISDFKKKDIPVLVATDVAARGLDIPSIKTVINYDVARDIDTHTHRIGRTGRAGEKGVAYTLLTPKDSNFAGDLVRNLEGANQHVSKELLDLAMQNAWFRKSRFKGGKGKKLNIGGGGLGYRERPGLGSENMDRGNNNVMSNYEAYKPSTGAMGDRLTAMKAAFQSQYKSHFVAASLSNQKAGSSAAGASGWTSAGSLNSVPTNSAQQGHNSPDSPVTSAAKGIPGFGNTGNISGAPVTYPSAGAQGVNNTASGNNSREGTGGSNGKRERYTENRGSSRHSHGETGNRHSDSPRHGDGGRHGDGYRHPESSSRHTDGHRHGENRHGGSAGRHGENRGANDGRNGESRKEAFNRESKMEPKMEPKVDSSKMDKVDSKTDKTADGFAVPEPPKRKKSRWDS
B4: SEC31A (protein, UniProt O94979 1-1220)
chain: MKLKEVDRTAMQAWSPAQNHPIYLATGTSAQQLDATFSTNASLEIFELDLSDPSLDMKSCATFSSSHRYHKLIWGPYKMDSKGDVSGVLIAGGENGNIILYDPSKIIAGDKEVVIAQNDKHTGPVRALDVNIFQTNLVASGANESEIYIWDLNNFATPMTPGAKTQPPEDISCIAWNRQVQHILASASPSGRATVWDLRKNEPIIKVSDHSNRMHCSGLAWHPDVATQMVLASEDDRLPVIQMWDLRFASSPLRVLENHARGILAIAWSMADPELLLSCGKDAKILCSNPNTGEVLYELPTNTQWCFDIQWCPRNPAVLSAASFDGRISVYSIMGGSTDGLRQKQVDKLSSSFGNLDPFGTGQPLPPLQIPQQTAQHSIVLPLKKPPKWIRRPVGASFSFGGKLVTFENVRMPSHQGAEQQQQQHHVFISQVVTEKEFLSRSDQLQQAVQSQGFINYCQKKIDASQTEFEKNVWSFLKVNFEDDSRGKYLELLGYRKEDLGKKIALALNKVDGANVALKDSDQVAQSDGEESPAAEEQLLGEHIKEEKEESEFLPSSGGTFNISVSGDIDGLITQALLTGNFESAVDLCLHDNRMADAIILAIAGGQELLARTQKKYFAKSQSKITRLITAVVMKNWKEIVESCDLKNWREALAAVLTYAKPDEFSALCDLLGTRLENEGDSLLQTQACLCYICAGNVEKLVACWTKAQDGSHPLSLQDLIEKVVILRKAVQLTQAMDTSTVGVLLAAKMSQYANLLAAQGSIAAALAFLPDNTNQPNIMQLRDRLCRAQGEPVAGHESPKIPYEKQQLPKGRPGPVAGHHQMPRVQTQQYYPHGENPPPPGFIMHGNVNPNAAGQLPTSPGHMHTQVPPYPQPQPYQPAQPYPFGTGGSAMYRPQQPVAPPTSNAYPNTPYISSASSYTGQSQLYAAQHQASSPTSSPATSFPPPPSSGASFQHGGPGAPPSSSAYALPPGTTGTLPAASELPASQRTGPQNGWNDPPALNRVPKKKKMPENFMPPVPITSPIMNPLGDPQSQMLQQQPSAPVPLSSQSSFPQPHLPGGQPFHGVQQPLGQTGMPPSFSKPNIEGAPGAPIGNTFQHVQSLPTKKITKKPIPDEHLILKTTFEDLIQRCLSSATDPQTKRKLDDASKRLEFLYDKLREQTLSPTITSGLHNIARSIETRNYSEGLTMHTHIVSTSNFSETSAFMPVLKVVLTQANKLGV
B5: CDKN2AIP (protein, UniProt Q9NXV6 1-580)
chain: MAQEVSEYLSQNPRVAAWVEALRCDGETDKHWRHRRDFLLRNAGDLAPAGGAASASTDEAADAESGTRNRQLQQLISFSMAWANHVFLGCRYPQKVMDKILSMAEGIKVTDAPTYTTRDELVAKVKKRGISSSNEGVEEPSKKRVIEGKNSSAVEQDHAKTSAKTERASAQQENSSTCIGSAIKSESGNSARSSGISSQNSSTSDGDRSVSSQSSSSVSSQVTTAGSGKASEAEAPDKHGSASFVSLLKSSVNSHMTQSTDSRQQSGSPKKSALEGSSASASQSSSEIEVPLLGSSGSSEVELPLLSSKPSSETASSGLTSKTSSEASVSSSVAKNSSSSGTSLLTPKSSSSTNTSLLTSKSTSQVAASLLASKSSSQTSGSLVSKSTSLASVSQLASKSSSQTSTSQLPSKSTSQSSESSVKFSCKLTNEDVKQKQPFFNRLYKTVAWKLVAVGGFSPNVNHGELLNAAIEALKATLDVFFVPLKELADLPQNKSSQESIVCELRCKSVYLGTGCGKSKENAKAVASREALKLFLKKKVVVKICKRKYRGSEIEDLVLLDEESRPVNLPPALKHPQELL
B6: HNRNPH3 (protein, UniProt P31942 1-346)
chain: MDWVMKHNGPNDASDGTVRLRGLPFGCSKEEIVQFFQGLEIVPNGITLTMDYQGRSTGEAFVQFASKEIAENALGKHKERIGHRYIEIFRSSRSEIKGFYDPPRRLLGQRPGPYDRPIGGRGGYYGAGRGSMYDRMRRGGDGYDGGYGGFDDYGGYNNYGYGNDGFDDRMRDGRGMGGHGYGGAGDASSGFHGGHFVHMRGLPFRATENDIANFFSPLNPIRVHIDIGADGRATGEADVEFVTHEDAVAAMSKDKNNMQHRYIELFLNSTPGGGSGMGGSGMGGYGRDGMDNQGGYGSVGRMGMGNNYSGGYGTPDGLGGYGRGGGGSGGYYGQGGMSGGGWRGMY
B7: PRKRA (protein, UniProt O75569 1-313)
chain: MSQSRHRAEAPPLEREDSGTFSLGKMITAKPGKTPIQVLHEYGMKTKNIPVYECERSDVQIHVPTFTFRVTVGDITCTGEGTSKKLAKHRAAEAAINILKANASICFAVPDPLMPDPSKQPKNQLNPIGSLQELAIHHGWRLPEYTLSQEGGPAHKREYTTICRLESFMETGKGASKKQAKRNAAEKFLAKFSNISPENHISLTNVVGHSLGCTWHSLRNSPGEKINLLKRSLLSIPNTDYIQLLSEIAKEQGFNITYLDIDELSANGQYQCLAELSTSPITVCHGSGISCGNAQSDAAHNALQYLKIIAERK

Target: 3XMyc-RPRD1B wild type (full length) (human) (UniProt Q9NQG5)
Test: affinity purification with mass spectrometry; SILAC: tetracycline-induced 3XMyc-RPRD1B WT (heavy) and MT (light) in 293 Flp-In cells, anti-Myc immunoprecipitates from total lysate combined and analysed by MS

| Binder | binding |
| --- | --- |
| B1 | binds |
| B2 | binds |
| B3 | binds |
| B4 | binds |
| B5 | binds |
| B6 | binds |
| B7 | binds |

Results are given in words; binding and its absence hold for the method and conditions named. Binding seen in cells or lysates may run through a third protein. Here binding means that the protein was enriched with, or labelled near, the bait; the list need not be complete. Where a sequence is shown, tags or fusion partners need not be part of it.
